# Where a name gives a salt, the structure may show the parent alone. ± gives the standard deviation of the averaged measurements. The list shows a part of the results. These are raw signals, not scaled to a control.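 A single yeast strain with four plasmids, each encoding a fluorescent protein and an amino-acid or uracil biosynthesis gene, seeds the community. Stochastic plasmid loss yields mixed prototroph and auxotroph subpopulations. Fixed cells were counted via automated confocal fluorescence imaging; DMSO-treated wells were the vehicle reference.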
# System: Saccharomyces cerevisiae BY4741 SeMeCo community
# Assay: imaged cell count per well (cells); higher = more cells
# Conditions: 10 µM; 24 h; SM minimal medium
# Method: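 Same SeMeCo high-content imaging drug screen: Selleck FDA-approved drugs at 10 µM, 24 h in SM medium, 384-well plates, 3 replicates.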
row,SMILES,imaged cell count per well
1,CO[C@H]1C[C@@H]2CC[C@@H](C)[C@@](O)(O2)C(=O)C(=O)N2CCCC[C@H]2C(=O)O[C@H]([C@H](C)C[C@@H]2CC[C@@H](O)[C@H](OC)C2)CC(=O)[C@H](C)/C=C(\C)[C@@H](O)[C@@H](OC)C(=O)[C@H](C)C[C@H](C)/C=C/C=C/C=C/1C [Rapamycin (Sirolimus)],10700 ± 1300
2,C[C@@H]1[C@H](O)[C@@H](C)/C=C/C=C/C=C/C=C/C=C/C=C/C=C/[C@H](O[C@@H]2O[C@H](C)[C@@H](O)[C@H](N)[C@@H]2O)C[C@@H]2O[C@](O)(C[C@@H](O)C[C@@H](O)[C@H](O)CC[C@@H](O)C[C@@H](O)CC(=O)O[C@H]1C)C[C@H](O)[C@H]2C(=O)O [Amphotericin B],2480 ± 660
3,CN(C)[C@@H]1C(O)=C(C(N)=O)C(=O)[C@@]2(O)C(O)=C3C(=O)c4c(O)ccc(Cl)c4[C@@H](O)[C@H]3C[C@@H]12 [Demeclocycline HCl],23300 ± 4700
4,COc1cc(O)c(C(=O)Nc2nc(C(=O)NCCN(C(C)C)C(C)C)cs2)cc1OC [Acotiamide hydrochloride],24800 ± 5000
5,CCN1CCCC1CNC(=O)c1cc(S(=O)(=O)CC)c(N)cc1OC (stereo not given) [Amisulpride],26700 ± 2600

# From the supplement of paper PMC8975748
